Reference: US20080014584A1, “MODULATING ANDROGEN RECEPTOR ACTIVITY” (MAYO FOUNDATION FOR MEDICAL EDUCATION AND RESEARCH, priority 2006, published 2008)
For at least one compound, name, drawing or mass did not settle the structure.

What was measured:
[1] = tested on: C4-2 cells; experiment: Cell viability assay (MTS reduction); format: cell-based; conditions: androgen-depleted medium (5% CSS), 10 μM bicalutamide, 24, 48, 72 hours
[2] = tested on: AR; experiment: PSA mRNA expression (Northern blot) in 22Rv1 cells; format: cell-based, human; conditions: 10 μM casodex, 24 hours, serum-free

CC(O)(CS(=O)(=O)c1ccc(F)cc1)C(=O)Nc1ccc(C#N)c(C(F)(F)F)c1 (centres unmarked) [bicalutamide]
overall viability of C4-2 cells [1]: unable to affect the overall viability of C4-2 cells | ligand-independent PSA expression [2]: resistant to casodex
